In PMC6233179:
No constants are given. Whether binding was seen depends on the method and setting. Binding seen in cells or lysates may run through a third protein. Some binding calls cover weakened binding; strength is not graded here.

Protein sequences, listed by entry. Tags and fused reporters are not part of them.
UniProt Q07936: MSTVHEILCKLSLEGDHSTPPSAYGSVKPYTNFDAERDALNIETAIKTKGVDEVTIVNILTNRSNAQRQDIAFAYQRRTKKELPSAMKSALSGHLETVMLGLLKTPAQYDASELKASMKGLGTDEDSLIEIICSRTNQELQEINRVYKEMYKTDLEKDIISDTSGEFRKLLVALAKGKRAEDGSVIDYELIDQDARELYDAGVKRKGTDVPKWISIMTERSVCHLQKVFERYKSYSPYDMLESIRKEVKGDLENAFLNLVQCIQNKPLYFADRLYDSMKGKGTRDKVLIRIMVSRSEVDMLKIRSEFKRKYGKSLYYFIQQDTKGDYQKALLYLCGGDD

Target: T1, α1-microglobulin (native human AM protein) (human) (UniProt P02760)
T1 sequence: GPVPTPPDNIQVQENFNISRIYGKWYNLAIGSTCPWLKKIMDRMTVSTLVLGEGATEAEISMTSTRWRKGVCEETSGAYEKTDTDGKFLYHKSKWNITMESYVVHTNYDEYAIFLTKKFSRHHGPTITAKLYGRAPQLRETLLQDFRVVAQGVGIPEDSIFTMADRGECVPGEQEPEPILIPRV
Test: co-IP; immunocoprecipitation to confirm the candidates of the shotgun proteomics in CFBs (Supplementary Fig. S5a); details not shown; only the target purified

binding: binds
Substance: annexin A2 (from UniProt Q07936 1-339)
